# Measurements from PubChem BioAssay AID2685 (National Center for Advancing Translational Sciences (NCATS), 2010).
# The whole screen tested about 320,000 compounds, of which about 2,100 (0.66%) were called active. The inconclusive results got no clear call from the source; some entries with a clear call stand among them for comparison. Calls come from the whole dose curve; as a rule, active = well fitted inhibition curve with a large enough effect in the signal ratio, with a control signal flat (not every such curve was filed as active); inconclusive = small, poorly fitted or top-dose-only effect, or effect the other way, or a change in a side signal; inactive = flat fitted curve, though single readings scatter; the % refers to the signal ratio. A potency beside an inconclusive call is a rough fit, not a confirmed value.
# Assay: qHTS Assay for Lipid Storage Modulators in Drosophila S3 Cells
# Conditions: BODIPY lipid droplet fluorescence, 18-24 h, cells fed with added oleic acid; lipid storage change, negative = inhibition: at 46.1 µM (top of the series) unless noted
# Outline: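 Drosophila S3 cells got compounds at several concentrations plus oleic acid (400 uM solution). Laser-scanning cytometry with 488 nm excitation read lipid droplets at 500-530 nm and cells at 575-640 nm. Percent activity was relative to 20 uM Triacsin C.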
# % is set by controls: 0 for no effect and ±100 for the full control effect; potency is the fitted concentration of half-maximal effect.
Compound,Potency,"lipid storage change, negative = inhibition"
CCCCNC(=O)/C(=C/c1ccco1)NC(=O)c1ccco1,"inconclusive: 5.17 µM [activator, full curve]",–
O=C(NC(Cc1ccccc1)C(=O)O)/C(=C\c1ccc(Cl)cc1)NC(=O)c1ccco1 (configuration not stated),active: 0.0411 µM,–
COc1ccc2ccc(O)c(CN3CCN(S(=O)(=O)c4cccc(C(F)(F)F)c4)CC3)c2c1,–,inconclusive: -4.48%
Cc1cc(C)c(OCC(O)CN2CCN(c3ccccn3)CC2)c(C)c1 (configuration not stated),–,inconclusive: 18.9%
O=C(COc1ccccc1)NC(=S)Nc1ccc2c3c(cccc13)CC2,"inconclusive: 1.84 µM [activator, partial curve]",–
CC(/C=C1\SC(=S)N(CCCC(=O)Nc2ccc(C(=O)O)cc2)C1=O)=C\c1ccccc1,"inconclusive: 20.6 µM [falling, partial curve, poor fit]",–
CC(=O)Nc1ccc(NC(=O)c2ccccc2N(C)S(=O)(=O)c2ccccc2)cc1,–,inconclusive: -13.4%
CCCSc1nnc(NC(=O)CSc2nc3[nH]c(=O)cc(O)c3s2)s1,–,inactive
COc1ccc(NC(C)=O)cc1NS(=O)(=O)c1cn(C)c(=O)n(C)c1=O,–,inconclusive: 35%
CC(Oc1ccc(Cl)cc1)C(=O)Nc1sccc1C(N)=O (configuration not stated),–,inconclusive: -0.358%
COc1ccc(C(=O)NC2(C(F)(F)F)NC(=O)N(CCCc3ccccc3)C2=O)cc1OC (configuration not stated),–,inconclusive: 5.81%
COc1ccccc1-c1nc(C#N)c(N2CCc3ccccc3C2)o1,"inconclusive: 1.3 µM [activator, full curve]",–
Oc1ccc(-c2n[nH]c(C(F)(F)F)c2-c2ccccc2)c(O)c1,"inconclusive: 14.6 µM [cytotoxic, partial curve]",–
Cc1ccc(NC(=O)C2CCN(c3nc(C)cc(C)n3)CC2)cc1,–,inconclusive: 0.481%
O=C(Nc1ccccc1C(=O)O)c1cccc(NC(=O)c2ccccc2Br)c1,"inconclusive: 25.9 µM [rising, partial curve]",–
Cc1onc(-c2c(F)cccc2Cl)c1C(=O)Nc1sc2c(c1C(N)=O)CCC2,–,inconclusive: 5.48%
C[C@]12CCC(=O)C=C1[C@H](O)C[C@@H]1[C@@H]2[C@@H](O)C[C@@]2(C)[C@H]1CC[C@]2(O)C(=O)CO,–,inconclusive: -13.4%
CCC1C2CN(C(C)=O)CC=C2C(C#N)=C(N)C1(C#N)C#N (configuration not stated),"inconclusive: 29.1 µM [activator, single point]",–
O=C(Nc1cccc(S(=O)(=O)C(F)F)c1)c1ccc(S(=O)(=O)N2CCOCC2)cc1,–,inconclusive: 36.5%
O=C(C1CCCCC1)N1CCN=C1SCc1cccc([N+](=O)[O-])c1,–,inconclusive: -8.13%
Cc1csc2c(N3CCN(C(=O)Nc4ccc(Cl)c(Cl)c4)CC3)ncnc12,–,inconclusive: 13.8%
Brc1ccc(C2=Nn3c(nnc3-c3n[nH]c4c3CCC4)SC2)cc1,"inconclusive: 5.17 µM [activator, partial curve]",–
CCN(CC)c1ccc(C2C3CCCCC3(O)CCN2CC(=O)Nc2ccccc2)cc1 (configuration not stated),"inconclusive: 13 µM [activator, partial curve]",–
COc1ccc(OCC(=O)Nn2c(-c3ccc(C)cc3)nc3ccccc3c2=O)cc1,"inconclusive: 32.6 µM [falling, single point]",–

Compound,Potency,"lipid storage change, negative = inhibition"
Cc1ccc(N(CC(O)Cn2c3ccccc3c3ccccc32)S(C)(=O)=O)cc1 (configuration not stated),–,inconclusive: 132%
O=S(=O)(Nc1nc2ccc(S(=O)(=O)N3CCCC3)cc2s1)c1ccc(F)cc1,"inconclusive: 0.366 µM [falling, full curve, poor fit]",–
O=C(CN1C(=O)NC2(CCCC2)C1=O)N1CCCSC1=Nc1ccccc1,"inconclusive: 0.206 µM [activator, full curve, poor fit]",–
Cc1cc(S(=O)(=O)Nc2ccccc2C(=O)O)ccc1Cl,–,inconclusive: -1.36%
CCC(C)c1ccccc1NC(=O)C(C)N(C)Cc1cccc(OC)c1 (configuration not stated),–,inconclusive: -12.3%
CCCCOC(=O)Nc1nnc(CCOCC)s1,–,inconclusive: -1.54%
COc1ccc(Cn2c(=O)[nH]c3cc(C(=O)NCCc4ccc(S(N)(=O)=O)cc4)ccc3c2=O)cc1,–,inconclusive: -55.5%
CCO[C@@H]1OC(C(=O)NCc2nc3ccccc3[nH]2)=C[C@H](C2CCCCC2)[C@H]1CCCO,"inconclusive: 14.6 µM [cytotoxic, partial curve]",–
O=C(c1cnn(C(=O)c2cccc(S(=O)(=O)N3CCOCC3)c2)c1)c1ccccc1O,–,inconclusive: 50.4%
O=C(CCCCCn1c(=O)[nH]c2ccsc2c1=O)N1CCCCC1,–,inactive
On1c(-c2ccccc2)nc2ccc(Cl)cc21,–,inconclusive: -24.2%
CCCCn1c(N)c(N(CCOC)C(=O)CN(C)S(=O)(=O)c2ccc(Cl)cc2)c(=O)[nH]c1=O,"inconclusive: 6.51 µM [falling, single point]",–
COc1ccc(C2CC(c3ccccc3)=NN2C(=S)Nc2ccccc2)cc1 (configuration not stated),–,inconclusive: 31.5%
COC(=O)c1ccccc1C(=O)N1CCCC(C(=O)c2ccc(OC)c(OC)c2)C1 (configuration not stated),"inconclusive: 25.9 µM [cytotoxic, single point]",–
COCCN(C(=O)Cn1nnc2ccccc21)C(C(=O)NC1CCCC1)c1ccc(OC)cc1OC (configuration not stated),"inconclusive: 23.1 µM [falling, single point]",–
COc1cccc(-c2nc3sc4c(c3c(=O)[nH]2)CCCCC4)c1,–,inconclusive: 3.37%
Cn1c2ccc(F)cc2c2nnc(SCCN3CCCCC3)nc21,–,inconclusive: 323%
CC(C)N=C(NC#N)SCc1ccccc1,–,inconclusive: -26.4%
Cc1ccc(-c2noc(CCC(=O)NCc3ccccc3CN3CCOCC3)n2)cc1,–,inconclusive: -78.1%
CCOc1ccc(NC(=O)CSc2nc3ccccc3nc2N2CC(C)OC(C)C2)cc1 (configuration not stated),"inconclusive: 25.9 µM [falling, single point]",–
O=C(C1=C(O)C(=O)N(Cc2ccccc2)C1c1ccncc1)c1ccco1 (configuration not stated),–,inconclusive: -22.1%
CC(C)CNS(=O)(=O)c1ccc(CCC(=O)Nc2ccc3c(c2)OCO3)cc1,–,inconclusive: 14.4%
COc1cccc(N2CCN(C(=O)CCCCCNc3nc(=S)[nH]c4ccccc34)CC2)c1,–,inconclusive: 10.4% [at 9.22 µM]
CC(Oc1ccc(Cl)cc1)C(=O)Nc1ccc(S(=O)(=O)Nc2nccs2)cc1 (configuration not stated),–,inconclusive: -134%

Compound,Potency,"lipid storage change, negative = inhibition"
O=C(c1ccc2c(c1)OCO2)N(c1ccccc1)C1C=CS(=O)(=O)C1 (configuration not stated),"inconclusive: 2.59 µM [activator, single point]",–
O=C(Cc1ccccc1F)NC1CCSc2ccccc21 (configuration not stated),–,inconclusive: 11.1%
CN(C(=O)C(C)(C)C)c1ccc(OCC(=O)N2CCc3ccccc3C2)cc1,–,inconclusive: -102%
O=C(CSc1nnc(COc2ccc(Cl)cc2Cl)o1)Nc1ccccn1,"inconclusive: 29.1 µM [activator, single point]",–
CCOC(=O)CC1C(=O)NCCN1C(=O)c1cccc(C(F)(F)F)c1 (configuration not stated),–,inconclusive: 2.78%
O=[N+]([O-])c1ccc(Cl)c(NC(=S)N2CCCC2)c1,–,inconclusive: -10.3%
COc1cccc(CNC(=O)c2cc3ccccn3n2)c1,–,inconclusive: -0.924%
CCc1ccccc1NC(=O)Cn1nnc(-c2cccnc2)n1,"inconclusive: 29.1 µM [activator, single point]",–
O=Cc1cccn1-c1ncc(Br)cn1,–,inconclusive: 5.13%
NS(=O)(=O)c1cccc(NC(=O)c2cccc(-c3ccc(O)cc3)c2)c1,"inconclusive: 1.84 µM [falling, partial curve]",–
CCOc1ccccc1NC(=O)COC(=O)c1ccccc1SCC(=O)N1CCCC1,–,inconclusive: 23.5%
CN(Cc1ccccc1)C1=CC(=[N+]2CCCC2)CC(C)(C)C1,"inconclusive: 29.1 µM [falling, single point]",–
CC1CC(C)CN(S(=O)(=O)c2ccc(NC(=O)CCNC(=O)c3ccc([N+](=O)[O-])cc3)cc2)C1 (configuration not stated),–,inconclusive: 67.1%
O=C(CCNC(=O)c1ccccc1)Nc1nc2ccccc2s1,active: 3.66 µM,–
Cc1cc(OC(C)C(=O)N2CCN(c3ccc(F)cc3)CC2)c2c(C)c(C)c(=O)oc2c1 (configuration not stated),"inconclusive: 1.84 µM [activator, partial curve]",–
CC(C)(C)c1cc[n+](-c2[nH]c(=O)sc2/C=N/NC(=O)c2ccccc2[O-])cc1,–,inconclusive: 98.2%
Cc1cc(S(=O)(=O)Nc2nc(CN3CCOCC3)nc3sc4c(c23)CCC4)cc(C)c1C,–,inconclusive
CC(=O)Nc1ccc(-c2csc(NNC(=O)c3ccccc3)n2)cc1,–,inconclusive: 54.9%
CNc1c(NS(=O)(=O)c2ccc(OC)c(Cl)c2)c(=O)oc2ccccc12,active: 16.4 µM,–
O=C1Nc2ccccc2C(O)(C(=O)NC2CC2)N1c1ccc(Cl)c(Cl)c1 (configuration not stated),–,inconclusive: -106%
CC(=O)NC(CSC(CC(=O)c1ccco1)c1ccc(C)cc1)C(=O)O (configuration not stated),–,inconclusive: 60.7%
N/C(=N\OC(=O)CSc1ccccc1)c1ccncc1,"inconclusive: 0.231 µM [activator, full curve, poor fit]",–
Cc1ccnc(NC(=O)c2oc3ccccc3c2C)c1,"inconclusive: 13 µM [falling, partial curve, poor fit]",–
CCN(CC)S(=O)(=O)c1ccc(C(=O)N2CCN(c3ncccn3)CC2)cc1,"inconclusive: 29.1 µM [falling, partial curve, poor fit]",–

# Single entries from the results shown.
# In lipid storage change, negative = inhibition, Cc1cc(S(=O)(=O)Nc2ccccc2C(=O)O)ccc1Cl has the entry inconclusive: -1.36%
# In Potency, CCOc1ccc(NC(=O)CSc2nc3ccccc3nc2N2CC(C)OC(C)C2)cc1 (configuration not stated) has the entry inconclusive: 25.9 µM [falling, single point]
# In Potency, O=S(=O)(Nc1nc2ccc(S(=O)(=O)N3CCCC3)cc2s1)c1ccc(F)cc1 has the entry inconclusive: 0.366 µM [falling, full curve, poor fit]
# In Potency, COCCN(C(=O)Cn1nnc2ccccc21)C(C(=O)NC1CCCC1)c1ccc(OC)cc1OC (configuration not stated) has the entry inconclusive: 23.1 µM [falling, single point]
# In lipid storage change, negative = inhibition, COc1ccc(Cn2c(=O)[nH]c3cc(C(=O)NCCc4ccc(S(N)(=O)=O)cc4)ccc3c2=O)cc1 has the entry inconclusive: -55.5%
